Measured values as given in article PMC10248797.
Positions count from the first letter of the chain named. Results are given in words; binding and its absence hold for the method and conditions named. Some binding calls cover weakened binding; strength is not graded here. For some assays here: Tags and fused reporters may be left off the sequences shown.

Sequences of proteins named here, by UniProt entry; tags and fusion partners are left off. A change or cut given only in a name is not applied to a line headed by its entry. Residues count along the entry.
UniProt Q13409: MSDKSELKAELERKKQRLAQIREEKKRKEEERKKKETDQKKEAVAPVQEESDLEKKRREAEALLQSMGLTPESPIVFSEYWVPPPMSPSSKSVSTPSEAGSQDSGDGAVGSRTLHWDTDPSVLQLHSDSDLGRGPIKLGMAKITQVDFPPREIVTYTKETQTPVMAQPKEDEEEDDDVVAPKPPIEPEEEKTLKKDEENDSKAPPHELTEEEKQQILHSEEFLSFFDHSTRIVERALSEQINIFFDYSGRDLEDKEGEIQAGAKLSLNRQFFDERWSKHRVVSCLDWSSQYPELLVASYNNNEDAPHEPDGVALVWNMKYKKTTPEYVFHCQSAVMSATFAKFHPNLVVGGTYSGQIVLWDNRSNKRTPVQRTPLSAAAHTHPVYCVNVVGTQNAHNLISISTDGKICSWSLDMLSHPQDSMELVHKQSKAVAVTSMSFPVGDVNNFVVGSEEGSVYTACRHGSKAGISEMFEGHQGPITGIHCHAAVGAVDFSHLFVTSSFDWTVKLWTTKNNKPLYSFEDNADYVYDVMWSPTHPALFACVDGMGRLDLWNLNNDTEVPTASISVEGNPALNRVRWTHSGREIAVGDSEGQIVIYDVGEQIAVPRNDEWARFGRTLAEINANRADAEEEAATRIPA
UniProt O43237: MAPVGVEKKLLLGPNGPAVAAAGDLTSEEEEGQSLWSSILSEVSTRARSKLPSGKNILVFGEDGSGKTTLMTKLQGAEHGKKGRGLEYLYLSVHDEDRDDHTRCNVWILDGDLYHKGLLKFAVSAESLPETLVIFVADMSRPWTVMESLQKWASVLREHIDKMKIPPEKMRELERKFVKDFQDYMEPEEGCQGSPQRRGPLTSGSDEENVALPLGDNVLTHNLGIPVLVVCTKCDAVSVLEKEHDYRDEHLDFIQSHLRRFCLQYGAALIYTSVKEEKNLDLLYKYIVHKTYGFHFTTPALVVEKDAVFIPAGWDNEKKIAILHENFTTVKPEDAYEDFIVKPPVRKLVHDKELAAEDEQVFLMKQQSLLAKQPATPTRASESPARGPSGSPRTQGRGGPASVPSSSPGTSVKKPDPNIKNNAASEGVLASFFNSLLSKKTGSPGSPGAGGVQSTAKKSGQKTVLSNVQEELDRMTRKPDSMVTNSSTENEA
UniProt P63172: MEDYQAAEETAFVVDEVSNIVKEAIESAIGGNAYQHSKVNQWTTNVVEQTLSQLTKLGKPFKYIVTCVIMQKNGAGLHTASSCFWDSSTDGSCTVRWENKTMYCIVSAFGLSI
UniProt Q9NP97: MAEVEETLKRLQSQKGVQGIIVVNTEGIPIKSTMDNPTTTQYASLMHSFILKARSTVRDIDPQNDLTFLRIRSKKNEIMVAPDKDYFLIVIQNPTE
UniProt P63167: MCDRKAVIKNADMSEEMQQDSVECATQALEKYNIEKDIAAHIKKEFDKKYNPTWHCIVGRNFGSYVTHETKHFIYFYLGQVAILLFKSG
UniProt Q9Y2I6, residues 1-702: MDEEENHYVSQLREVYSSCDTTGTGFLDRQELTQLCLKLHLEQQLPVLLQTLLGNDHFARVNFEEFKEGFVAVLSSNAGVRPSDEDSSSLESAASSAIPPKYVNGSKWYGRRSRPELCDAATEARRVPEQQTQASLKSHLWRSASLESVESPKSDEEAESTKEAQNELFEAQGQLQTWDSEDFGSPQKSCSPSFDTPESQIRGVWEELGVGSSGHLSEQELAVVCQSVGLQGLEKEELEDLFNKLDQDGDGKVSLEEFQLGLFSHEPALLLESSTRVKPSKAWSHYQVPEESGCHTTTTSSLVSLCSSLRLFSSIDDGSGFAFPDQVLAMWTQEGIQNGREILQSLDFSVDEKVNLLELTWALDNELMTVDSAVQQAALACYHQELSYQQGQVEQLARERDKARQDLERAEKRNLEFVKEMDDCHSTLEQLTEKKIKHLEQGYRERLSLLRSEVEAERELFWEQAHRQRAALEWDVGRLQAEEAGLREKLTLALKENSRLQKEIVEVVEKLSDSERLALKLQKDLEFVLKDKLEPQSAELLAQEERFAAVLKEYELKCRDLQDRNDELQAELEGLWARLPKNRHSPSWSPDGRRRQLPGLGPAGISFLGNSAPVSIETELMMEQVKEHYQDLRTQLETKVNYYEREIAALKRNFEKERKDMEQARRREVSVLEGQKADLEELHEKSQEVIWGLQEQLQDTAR

Legend:
[1] = molecular target: T1, Halo-tagged Ndel1(1-192), N-terminal coiled coil only, with C-terminal 6X-His tag (UniProt Q9GZM8); assay: pull-down; 30 nM Halo-Ndel1 construct on HaloTag beads; 5 nM dynein in the absence and presence of 30 nM Lis1; depletion of dynein from solution; both purified
T1 sequence: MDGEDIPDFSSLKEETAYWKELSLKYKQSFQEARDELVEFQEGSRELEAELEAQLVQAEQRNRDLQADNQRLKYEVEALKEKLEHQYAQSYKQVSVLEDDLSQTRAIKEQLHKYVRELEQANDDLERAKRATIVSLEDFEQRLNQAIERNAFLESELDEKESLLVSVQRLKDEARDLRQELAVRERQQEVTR

[2] = molecular target: T2, Halo-tagged full-length Ndel1 with the four CDK1 sites mutated to aspartic acid (S198D; T219D; S231D; S242D), with C-terminal 6X-His tag (UniProt Q9GZM8); assay: as above
T2 sequence: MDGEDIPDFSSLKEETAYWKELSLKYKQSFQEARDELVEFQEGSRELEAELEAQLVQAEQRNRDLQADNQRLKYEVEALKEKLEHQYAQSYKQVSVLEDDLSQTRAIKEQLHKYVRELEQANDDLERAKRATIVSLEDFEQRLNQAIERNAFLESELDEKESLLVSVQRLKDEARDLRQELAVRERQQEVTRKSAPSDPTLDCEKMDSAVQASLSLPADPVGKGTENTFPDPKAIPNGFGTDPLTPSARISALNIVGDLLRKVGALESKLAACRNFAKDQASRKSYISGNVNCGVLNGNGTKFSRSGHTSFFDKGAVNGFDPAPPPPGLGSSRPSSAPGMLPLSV

[3] = molecular target: T3, Halo-tagged full-length Ndel1 with C-terminal 6X-His tag (UniProt Q9GZM8); assay: as above
T3 sequence: T2 sequence with D198S, D219T, D231S, D242S

[4] = molecular target: T4, tagless FL-Ndel1 (i.e., no HaloTag) (UniProt Q9GZM8); assay: pull-down; 50 nM Halo-Lis1 on HaloTag beads; 5 nM dynein with 100 nM WT Ndel1 without HaloTag; depletion of dynein from solution; both purified
T4 sequence: T2 sequence with D198S, D219T, D231S, D242S

[5] = molecular target: SNAP-tagged, recombinant full-length human cytoplasmic dynein-1 with all associated accessory chains (human) (UniProt Q14204+Q13409+O43237+P63172+Q9NP97+P63167); assay: pull-down; 90 nM FL-Ndel1 on Ni-NTA magnetic beads via the C-terminal 6X-His tag; 5 nM dynein with 10 nM dynactin and 150 nM NINL; depletion of dynein from solution; both purified

Row | binding [1] | binding [2] | binding [3] | binding [4] | binding [5] | Substance
1 | binds | binds | binds | binds | – | SNAP-tagged, recombinant full-length human cytoplasmic dynein-1 with all associated accessory chains (from UniProt Q14204 1-4646; Q13409-3 1-612; O43237 1-492; P63172 1-113; Q9NP97 1-96; P63167 1-89) (complex)
2 | – | – | – | – | binds | Halo-NINL(1-702) (from UniProt Q9Y2I6 1-702) (domain or fragment)
